In patent publication CN109942709A:
Results are given in words; binding and its absence hold for the method and conditions named. Some entries that bind do so weakly or less than the wild type.

Protein sequences, listed by entry. Tags and fused reporters are not part of them. Residues count along the entry.
UniProt Q02223, residues 1-54: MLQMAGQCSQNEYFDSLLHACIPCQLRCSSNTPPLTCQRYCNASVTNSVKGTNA

Biological target: 人BCMA (ELISA包被抗原) (human) (UniProt Q02223)
Test: ELISA of clone culture lysates on coated BCMA free peptide and human BCMA, HSA as negative control

| binding | Binder |
| --- | --- |
| binds | QL197F4 (clone, culture lysate) (VHH) VHH: QVQLIESGGGLVQAGTSLTLSCASSGRNFNSYAMGWFRQAPGKEREFLATISRAAGSTYYADSAKGRFTISRDNRKEFAYLQIHDLKPDDTAVYYCAAESWTPTTGWPPTKADEFDYWGQGTQVTVSS |
| binds | QL197G8 (clone, culture lysate) (VHH) VHH: QVQLVESGGGLVQAGGSLRLSCAASGRTFSDHTLGWFRQAPGKEREFVGAISWSGGSTYYADSVSGRFTISRDKAKNTGYLQMNSLKPEDTAVYYCAAADDRYSDYRYWGQGTQVTVSS |
| binds | QL197C9 (clone, culture lysate) (VHH) VHH: QGQYVESGGGSVQAGESLRLSCIGSHTTAINAAGWYRQTPGKQRELVGLIHNDGSTQYAQFAKGRFTISRDDAKDAVYLQMNSLKVEDTGVYYCNIDSRGVGPVWAHWGQGTQVTVSS |
| binds | QL197A11 (clone, culture lysate) (VHH) VHH: QVLLVESGGGLVQAGGSLRLSCAVSGRTVSTATMGWFRQAPGKEREFVAALNWSGNKSYYADSVKGRFAISRDEAKNTVYLQMNSLKPEDTAVYHCAAGPDLNYYTNYDARRYDHWGQGTQVTVSS |
| binds | QL197E2 (clone, culture lysate) (VHH) VHH: QVQLVENGGGLVQPGGSLRLSCAASGASFNDYHMGWFRQAPGQERKFVAQIARYGAATYYARAVQGRFTISVDDAKNTVYLQMNGLTPDDTGVYYCTADRSNYYIDNALPDYWGQGTQVTVSS |
| binds | QL197D11 (clone, culture lysate) (VHH) VHH: QAQLKESGGGSVRTGESLRLSCEASGNIYSINRMAWYRQVSGMQREVVATSLVDGTTNYGDSVKDRFTVSRDNAKKMVFLQMNSLEPADTGVYYCNVEGNRIDYAPGSRYPTHSYVELWGQGTQVTVSS |
| binds | QL197F7 (clone, culture lysate) (VHH) VHH: QDRLVESGGGSVQAGGSLKLSCRTSGFNLDDYAIGWFRQAPGKERERVSCISSDGRTSHTGSAKGRFTIRSANARNTVYLQLNRLTPEDAGVYFCAAERTSRLCSFLSYDYWGQGTQVTVSS |
